Source: PubChem BioAssay AID1259424 (University of Nebraska Medical Center, 2018)

- Assay: 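Rank knockdowns across the genome by resemblance to the KSR1 depletion profile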 (primary screen)
- System: human HCT116 colon cancer cells
- Reagent: siRNA pool against human genes, 50 nM
- Read-out: 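Six signature mRNAs by branched-DNA multiplex assay, scaled to two housekeeping genes and non-targeting median, log2; matched to mean KSR1 knockdown profile by Pearson correlation and euclidean distance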
- Reading the numbers: mean correlation with KSR1 profile and KSR1 correlation: higher = expression change more like KSR1 knockdown; mean distance from KSR1 profile: higher = expression change less like KSR1 knockdown
In all, the deposit lists about 14,000 reagents; this is a random part of them. 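Higher correlation or smaller distance means closer resemblance to KSR1 loss; control wells, including KSR1 knockdowns, recur on many plates.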 The record does not give: the time to read-out.

| gene knocked down | PubChem SID | mean correlation with KSR1 profile | mean distance from KSR1 profile | KSR1 correlation, replicate 1 | KSR1 correlation, replicate 2 | KSR1 correlation, replicate 3 |
| --- | --- | --- | --- | --- | --- | --- |
| IL7 | SID363992167 | -0.1 | 1.15 | 0.0275 | -0.339 | 0.229 |
| CYP2A13 | SID363992058 | 0.687 | 1.77 | 0.602 | 0.642 | 0.75 |
| C11orf16 | SID364001746 | -0.443 | 1.97 | -0.262 | -0.58 | -0.514 |
| RWDD1 | SID363999746 | 0.0948 | 1.72 | 0.0792 | 0.00553 | 0.182 |
| IL9R | SID363993387 | 0.245 | 1.56 | 0.259 | 0.198 | 0.206 |
| NR2C1 | SID363994416 | -0.19 | 1.44 | 0.314 | -0.0836 | -0.769 |
| AGA | SID363991366 | -0.435 | 2.57 | -0.473 | 0.0192 | -0.523 |
| MAPK8IP1 | SID363996362 | -0.15 | 2.54 | 0.223 | -0.0481 | -0.557 |
| CNBP | SID363994523 | 0.044 | 2.19 | 0.0949 | 0.0193 | -0.0312 |
| BMP10 | SID363998894 | -0.0405 | 1.84 | -0.137 | -0.148 | -0.406 |
| PRRC2A | SID363995606 | 0.444 | 3.73 | 0.208 | 0.418 | 0.00935 |
| STMN2 | SID363997760 | -0.00216 | 1.21 | -0.377 | 0.0123 | 0.511 |
| CCDC85C | SID364002522 | -0.0619 | 2.32 | -0.236 | -0.233 | 0.129 |
| VPS50 | SID364002867 | -0.631 | 1.12 | -0.247 | -0.445 | -0.724 |
| FLT1 | SID363993229 | 0.809 | 3.17 | 0.696 | 0.652 | 0.731 |
| SP4 | SID363994253 | 0.178 | 2.91 | 0.185 | 0.0563 | 0.435 |
| EPHA1 | SID363996154 | -0.0664 | 2.39 | -0.00117 | -0.303 | -0.296 |
| HOXC6 | SID363995480 | -0.199 | 3.05 | -0.000474 | -0.0876 | -0.241 |
| CYC1 | SID363993129 | 0.411 | 1.97 | 0.387 | 0.358 | 0.442 |
| KCND3 | SID363995921 | -0.418 | 2.64 | -0.364 | -0.4 | -0.402 |

3 entries from above, ordered by “KSR1 correlation, replicate 1”, ascending:
| gene knocked down | PubChem SID | mean correlation with KSR1 profile | mean distance from KSR1 profile | KSR1 correlation, replicate 1 | KSR1 correlation, replicate 2 | KSR1 correlation, replicate 3 |
| --- | --- | --- | --- | --- | --- | --- |
| C11orf16 | SID364001746 | -0.443 | 1.97 | -0.262 | -0.58 | -0.514 |
| RWDD1 | SID363999746 | 0.0948 | 1.72 | 0.0792 | 0.00553 | 0.182 |
| CYP2A13 | SID363992058 | 0.687 | 1.77 | 0.602 | 0.642 | 0.75 |
